Experimental data as given in US8106017B2 (Caregen Co., Ltd., priority 2005, dated 2012).
The star is where a group is joined. Fmoc = O=C(OCC1c2ccccc2-c2ccccc21)*; Palmitoyl = CCCCCCCCCCCCCCCC(=O)*; For = O=C*

How the values were obtained:
[1] = general procedure: Fmoc solid-phase peptide synthesis; chloro trityl chloride resin (CTL resin, Nova Biochem 01-64-0021); Fmoc-Rink amide resin (Nova Biochem 01-64-0013); HoBt/Bop/DIEA; settings: whole synthesis; for crude yield / isolated yield / final HPLC purity: scale of the general procedure 1 mmole; for isolated yield: final yield; for final HPLC purity: high performance liquid chromatography
[2] = general procedure: Fmoc solid-phase peptide synthesis; CTL resin; HoBt/Bop/DIEA; settings: whole synthesis; for crude yield: scale of the general procedure 1 mmole
[3] = general procedure: Fmoc solid-phase peptide synthesis; Rink amide resin; HoBt/Bop/DIEA; settings: whole synthesis

With For-KLKKTETQ-NH2 as the substance, how does the crude mass [1] read?
The crude mass was 0.89 g.

What about the crude yield [1] of the same substance?
Its crude yield is 88.8%.

For Fmoc-KLKKTETQ-OH, which crude mass [2] is on record?
Its crude mass is 1.1 g.

And the crude yield [2]?
Its crude yield is 91.9%.

For “Stearyl-Lys-Leu-Lys-Lys-Thr-Glu-Thr-Gln-NH2”, which crude mass [1] is on record?
Its crude mass is 1.02 g.

What about the crude yield [1] of the same substance?
The crude yield was 81.2%.

For “Stearyl-Lys-Leu-Lys-Lys-Thr-Glu-Thr-Gln-OH”, which crude mass [1] is on record?
The crude mass was 1.1 g.

And the crude yield [1]?
The crude yield was 87.5%.

Which crude mass [3] does the source give for Fmoc-KLKKTETQ-NH2 here?
Its crude mass is 0.98 g.

And the crude yield ([3]; scale of the general procedure 1 mmole)?
The crude yield was 81.9%.

For Palmitoyl-KLKKTETQ-OH, which crude mass [1] is on record?
Its crude mass is 1.4 g.

What does the source list for “Myristyl-Lys-Leu-Lys-Lys-Thr-Glu-Thr-Gln-NH2”?
crude mass [1]: 0.98 g; crude yield [1]: 81.6%

Which results are given for Ac-KLKKTETQ-OH?
isolated mass [1]: 0.72 g; isolated yield [1]: 70.9%; final HPLC purity [1]: 96%; crude mass [2]: 0.93 g; crude yield [2]: 91.4%

Which crude mass [1] does the source give for Palmitoyl-KLKKTETQ-NH2 here?
Its crude mass is 1.3 g.

For Ac-KLKKTETQ-NH2, which crude mass [1] is on record?
Its crude mass is 0.87 g.

What about the isolated mass [1] of the same substance?
The isolated mass was 0.72 g.

And the isolated yield [1]?
The isolated yield was 70.9%.

What about the “final HPLC purity” value [1] of the same substance?
The value was 96%.

What about the crude yield [1] of the same substance?
The crude yield was 85.6%.

What does the source list for For-KLKKTETQ-OH?
crude mass [1]: 0.88 g; crude yield [1]: 87.7%
